The text below walks through data of article PMC4373128.

Chains of the proteins cited; added tags and fusions are not shown.
UniProt P33527: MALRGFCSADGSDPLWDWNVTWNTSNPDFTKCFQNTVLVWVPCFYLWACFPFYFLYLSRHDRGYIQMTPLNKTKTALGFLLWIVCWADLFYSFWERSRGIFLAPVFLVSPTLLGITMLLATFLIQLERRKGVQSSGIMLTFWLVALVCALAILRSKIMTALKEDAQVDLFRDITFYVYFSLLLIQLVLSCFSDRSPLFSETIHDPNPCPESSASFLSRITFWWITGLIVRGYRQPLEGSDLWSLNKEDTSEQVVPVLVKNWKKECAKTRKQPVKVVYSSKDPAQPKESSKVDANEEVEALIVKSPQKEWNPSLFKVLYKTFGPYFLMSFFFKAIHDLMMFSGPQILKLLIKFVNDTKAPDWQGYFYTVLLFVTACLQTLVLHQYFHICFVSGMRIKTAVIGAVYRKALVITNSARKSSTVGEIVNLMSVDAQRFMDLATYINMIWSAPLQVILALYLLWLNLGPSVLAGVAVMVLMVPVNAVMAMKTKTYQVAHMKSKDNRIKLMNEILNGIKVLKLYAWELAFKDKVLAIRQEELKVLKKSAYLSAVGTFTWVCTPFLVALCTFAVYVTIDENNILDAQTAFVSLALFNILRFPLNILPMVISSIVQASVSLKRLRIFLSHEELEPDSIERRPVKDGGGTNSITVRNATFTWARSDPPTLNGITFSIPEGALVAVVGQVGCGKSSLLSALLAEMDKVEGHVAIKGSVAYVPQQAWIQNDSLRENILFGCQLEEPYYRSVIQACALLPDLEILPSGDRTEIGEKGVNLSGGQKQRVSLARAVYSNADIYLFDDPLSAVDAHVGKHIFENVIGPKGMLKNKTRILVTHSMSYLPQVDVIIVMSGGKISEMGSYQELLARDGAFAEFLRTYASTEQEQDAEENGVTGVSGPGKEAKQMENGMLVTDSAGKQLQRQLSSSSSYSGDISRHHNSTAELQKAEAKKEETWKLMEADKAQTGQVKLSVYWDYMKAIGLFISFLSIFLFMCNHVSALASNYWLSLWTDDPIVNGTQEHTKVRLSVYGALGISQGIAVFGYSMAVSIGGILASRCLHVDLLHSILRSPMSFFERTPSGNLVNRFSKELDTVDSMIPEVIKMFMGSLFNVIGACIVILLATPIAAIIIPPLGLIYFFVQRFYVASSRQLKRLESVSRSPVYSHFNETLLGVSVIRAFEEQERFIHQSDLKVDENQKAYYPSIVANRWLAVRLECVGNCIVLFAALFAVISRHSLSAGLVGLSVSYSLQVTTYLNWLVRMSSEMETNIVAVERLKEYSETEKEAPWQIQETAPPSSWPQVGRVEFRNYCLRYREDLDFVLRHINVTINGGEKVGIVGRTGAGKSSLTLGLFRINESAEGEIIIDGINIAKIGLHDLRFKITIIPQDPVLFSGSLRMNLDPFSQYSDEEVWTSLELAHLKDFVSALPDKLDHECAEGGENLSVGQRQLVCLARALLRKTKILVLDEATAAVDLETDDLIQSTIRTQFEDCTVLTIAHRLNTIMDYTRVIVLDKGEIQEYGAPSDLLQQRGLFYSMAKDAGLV

In the test the target is T1, inwardly rectifying potassium channel Kir2.1 (KCNJ2) (human (endogenous in H69)) (UniProt P63252).
T1 sequence: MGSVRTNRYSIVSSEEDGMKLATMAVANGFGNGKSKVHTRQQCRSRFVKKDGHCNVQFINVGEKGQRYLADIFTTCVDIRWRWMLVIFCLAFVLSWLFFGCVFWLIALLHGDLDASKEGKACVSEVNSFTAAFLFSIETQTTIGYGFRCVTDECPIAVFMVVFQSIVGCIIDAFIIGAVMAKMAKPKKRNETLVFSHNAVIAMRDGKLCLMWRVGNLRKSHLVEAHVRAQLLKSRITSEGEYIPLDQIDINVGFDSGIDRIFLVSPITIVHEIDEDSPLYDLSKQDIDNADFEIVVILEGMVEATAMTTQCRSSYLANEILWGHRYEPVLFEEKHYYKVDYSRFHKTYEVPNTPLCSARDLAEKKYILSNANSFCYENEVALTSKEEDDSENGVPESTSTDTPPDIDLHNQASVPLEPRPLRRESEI
Kind of test: co-IP; H69 cell lysate (20 mM Tris pH 7.4, 50 mM NaCl, 1 mM EDTA, 0.5% NP-40, 0.5% SDS, 0.5% deoxycholate) precipitated with rabbit anti-Kir2.1 antibody overnight at 4°C; rabbit non-specific IgG as control; blotted with anti-ABCC1 and anti-Kir2.1.

Results are given in words; binding and its absence hold for the method and conditions named. In cells and extracts the contact can be indirect. Some binding calls cover weakened binding; strength is not graded here.

Consider “multidrug resistance protein 1 (MRP1/ABCC1) (from UniProt P33527 1-1531)”, for which the binding entry was “binds”.
